Assay results taken from the supplement of paper PMC10849652.
Some of the results follow.

Chains of the proteins cited; added tags and fusions are not shown. Lines headed by an entry give the natural chain unless they say otherwise; changes in a name come on top.
UniProt Q15629: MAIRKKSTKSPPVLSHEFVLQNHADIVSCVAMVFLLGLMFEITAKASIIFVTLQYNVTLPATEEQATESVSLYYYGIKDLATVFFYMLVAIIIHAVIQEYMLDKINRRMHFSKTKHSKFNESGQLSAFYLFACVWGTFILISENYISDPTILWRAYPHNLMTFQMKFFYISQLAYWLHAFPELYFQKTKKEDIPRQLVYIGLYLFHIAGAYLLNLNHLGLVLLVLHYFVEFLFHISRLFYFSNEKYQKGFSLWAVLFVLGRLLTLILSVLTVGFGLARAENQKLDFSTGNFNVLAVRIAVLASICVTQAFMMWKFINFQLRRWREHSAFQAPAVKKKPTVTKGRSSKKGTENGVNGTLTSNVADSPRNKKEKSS
UniProt Q99598: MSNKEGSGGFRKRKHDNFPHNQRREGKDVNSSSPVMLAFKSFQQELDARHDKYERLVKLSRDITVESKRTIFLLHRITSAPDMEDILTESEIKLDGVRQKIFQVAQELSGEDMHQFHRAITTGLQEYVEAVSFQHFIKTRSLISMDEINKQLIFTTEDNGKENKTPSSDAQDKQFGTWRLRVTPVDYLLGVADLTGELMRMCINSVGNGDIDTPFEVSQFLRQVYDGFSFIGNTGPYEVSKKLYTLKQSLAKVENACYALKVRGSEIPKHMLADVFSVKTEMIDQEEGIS
UniProt Q6PJ69: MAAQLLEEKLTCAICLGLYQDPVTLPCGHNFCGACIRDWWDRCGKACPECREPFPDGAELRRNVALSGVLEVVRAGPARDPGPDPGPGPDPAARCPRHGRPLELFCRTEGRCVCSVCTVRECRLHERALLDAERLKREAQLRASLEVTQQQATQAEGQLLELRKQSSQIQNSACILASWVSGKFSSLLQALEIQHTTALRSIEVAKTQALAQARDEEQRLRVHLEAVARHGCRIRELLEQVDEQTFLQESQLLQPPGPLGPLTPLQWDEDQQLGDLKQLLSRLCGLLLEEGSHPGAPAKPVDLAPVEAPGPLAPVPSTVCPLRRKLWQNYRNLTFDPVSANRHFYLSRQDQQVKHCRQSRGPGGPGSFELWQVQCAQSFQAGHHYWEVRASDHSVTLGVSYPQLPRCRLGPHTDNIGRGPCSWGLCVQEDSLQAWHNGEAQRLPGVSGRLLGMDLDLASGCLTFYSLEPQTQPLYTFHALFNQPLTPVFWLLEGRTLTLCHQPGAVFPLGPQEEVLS
UniProt Q629K1: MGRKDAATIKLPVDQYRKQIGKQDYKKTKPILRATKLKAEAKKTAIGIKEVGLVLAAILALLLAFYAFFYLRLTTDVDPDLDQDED
UniProt Q96GJ1: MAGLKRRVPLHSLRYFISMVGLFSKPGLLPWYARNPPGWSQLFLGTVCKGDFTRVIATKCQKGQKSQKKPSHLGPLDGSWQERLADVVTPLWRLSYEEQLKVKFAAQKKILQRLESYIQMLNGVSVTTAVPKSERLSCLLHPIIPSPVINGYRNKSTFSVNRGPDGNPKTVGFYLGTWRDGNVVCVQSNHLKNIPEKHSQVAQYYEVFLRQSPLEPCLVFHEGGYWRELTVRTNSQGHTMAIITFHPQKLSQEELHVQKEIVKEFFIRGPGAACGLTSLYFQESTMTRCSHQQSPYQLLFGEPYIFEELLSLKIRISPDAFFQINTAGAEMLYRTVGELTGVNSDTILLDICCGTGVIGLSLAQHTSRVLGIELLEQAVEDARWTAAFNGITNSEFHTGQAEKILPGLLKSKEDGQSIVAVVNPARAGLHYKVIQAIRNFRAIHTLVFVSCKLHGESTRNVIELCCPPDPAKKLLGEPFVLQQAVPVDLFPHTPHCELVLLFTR
UniProt Q9C037: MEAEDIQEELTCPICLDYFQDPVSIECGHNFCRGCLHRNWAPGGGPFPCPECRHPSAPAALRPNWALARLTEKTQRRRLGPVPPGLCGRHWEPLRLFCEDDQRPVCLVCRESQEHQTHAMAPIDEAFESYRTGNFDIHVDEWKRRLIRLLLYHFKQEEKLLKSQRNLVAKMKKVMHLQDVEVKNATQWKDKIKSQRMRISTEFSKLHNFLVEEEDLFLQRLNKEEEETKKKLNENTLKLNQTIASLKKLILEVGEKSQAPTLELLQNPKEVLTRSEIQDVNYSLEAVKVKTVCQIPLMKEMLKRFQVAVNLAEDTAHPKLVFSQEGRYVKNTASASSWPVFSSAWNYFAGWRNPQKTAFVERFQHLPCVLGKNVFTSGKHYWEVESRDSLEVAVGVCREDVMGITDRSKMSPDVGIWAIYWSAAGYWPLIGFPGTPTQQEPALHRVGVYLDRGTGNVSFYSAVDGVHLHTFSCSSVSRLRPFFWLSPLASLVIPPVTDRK
UniProt Q8WW01: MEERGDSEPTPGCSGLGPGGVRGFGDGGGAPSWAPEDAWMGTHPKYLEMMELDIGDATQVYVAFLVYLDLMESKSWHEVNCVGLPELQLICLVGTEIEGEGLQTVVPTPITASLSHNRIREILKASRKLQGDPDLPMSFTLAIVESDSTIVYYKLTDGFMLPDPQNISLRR
UniProt Q96QT4: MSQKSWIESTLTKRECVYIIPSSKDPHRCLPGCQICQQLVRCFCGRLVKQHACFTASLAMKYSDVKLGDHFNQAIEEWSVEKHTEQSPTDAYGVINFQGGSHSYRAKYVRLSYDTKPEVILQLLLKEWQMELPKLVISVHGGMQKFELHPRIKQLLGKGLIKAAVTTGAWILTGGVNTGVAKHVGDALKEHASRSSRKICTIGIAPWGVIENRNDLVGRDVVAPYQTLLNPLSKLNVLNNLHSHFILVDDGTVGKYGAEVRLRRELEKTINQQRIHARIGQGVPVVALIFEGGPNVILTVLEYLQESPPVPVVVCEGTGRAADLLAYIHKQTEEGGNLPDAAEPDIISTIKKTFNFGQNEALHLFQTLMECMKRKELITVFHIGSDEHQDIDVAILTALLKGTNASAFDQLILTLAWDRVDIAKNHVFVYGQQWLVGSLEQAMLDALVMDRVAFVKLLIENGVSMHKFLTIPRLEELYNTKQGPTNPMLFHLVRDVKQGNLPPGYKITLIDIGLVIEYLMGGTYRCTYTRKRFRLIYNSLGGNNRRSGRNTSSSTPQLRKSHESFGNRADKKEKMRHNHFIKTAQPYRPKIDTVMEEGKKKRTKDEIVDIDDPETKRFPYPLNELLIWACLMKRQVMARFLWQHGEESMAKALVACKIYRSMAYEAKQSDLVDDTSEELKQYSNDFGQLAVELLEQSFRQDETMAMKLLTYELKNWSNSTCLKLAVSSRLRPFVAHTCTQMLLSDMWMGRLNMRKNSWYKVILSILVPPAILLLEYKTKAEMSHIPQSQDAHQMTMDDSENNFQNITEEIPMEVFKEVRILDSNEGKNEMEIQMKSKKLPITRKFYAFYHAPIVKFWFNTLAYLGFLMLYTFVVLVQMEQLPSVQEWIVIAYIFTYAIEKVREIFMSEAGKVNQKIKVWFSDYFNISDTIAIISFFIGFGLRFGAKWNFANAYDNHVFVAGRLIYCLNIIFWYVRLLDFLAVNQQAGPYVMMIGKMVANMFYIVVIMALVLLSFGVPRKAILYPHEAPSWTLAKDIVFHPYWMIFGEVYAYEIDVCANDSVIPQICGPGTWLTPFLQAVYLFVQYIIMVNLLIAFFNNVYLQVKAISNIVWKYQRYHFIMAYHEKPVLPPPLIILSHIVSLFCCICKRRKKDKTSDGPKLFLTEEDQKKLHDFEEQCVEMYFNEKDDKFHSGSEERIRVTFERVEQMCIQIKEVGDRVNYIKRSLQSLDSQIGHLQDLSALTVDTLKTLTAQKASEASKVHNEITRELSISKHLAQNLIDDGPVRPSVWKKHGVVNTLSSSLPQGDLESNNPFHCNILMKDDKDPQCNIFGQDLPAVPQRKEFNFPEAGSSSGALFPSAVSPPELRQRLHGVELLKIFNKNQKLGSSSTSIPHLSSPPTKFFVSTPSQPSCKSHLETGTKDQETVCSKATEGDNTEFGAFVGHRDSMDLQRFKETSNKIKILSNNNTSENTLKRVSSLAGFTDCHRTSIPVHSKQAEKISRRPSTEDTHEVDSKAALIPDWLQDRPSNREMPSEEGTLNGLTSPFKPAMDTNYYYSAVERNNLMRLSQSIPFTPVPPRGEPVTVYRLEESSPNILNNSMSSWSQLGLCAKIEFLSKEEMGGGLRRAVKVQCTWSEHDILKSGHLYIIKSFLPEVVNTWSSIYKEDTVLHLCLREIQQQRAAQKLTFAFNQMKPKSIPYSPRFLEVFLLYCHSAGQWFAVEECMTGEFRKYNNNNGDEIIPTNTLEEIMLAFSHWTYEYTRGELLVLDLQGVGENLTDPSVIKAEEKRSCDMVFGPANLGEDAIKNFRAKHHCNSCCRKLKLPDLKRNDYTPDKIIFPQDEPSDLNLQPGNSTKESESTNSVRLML
UniProt O75648: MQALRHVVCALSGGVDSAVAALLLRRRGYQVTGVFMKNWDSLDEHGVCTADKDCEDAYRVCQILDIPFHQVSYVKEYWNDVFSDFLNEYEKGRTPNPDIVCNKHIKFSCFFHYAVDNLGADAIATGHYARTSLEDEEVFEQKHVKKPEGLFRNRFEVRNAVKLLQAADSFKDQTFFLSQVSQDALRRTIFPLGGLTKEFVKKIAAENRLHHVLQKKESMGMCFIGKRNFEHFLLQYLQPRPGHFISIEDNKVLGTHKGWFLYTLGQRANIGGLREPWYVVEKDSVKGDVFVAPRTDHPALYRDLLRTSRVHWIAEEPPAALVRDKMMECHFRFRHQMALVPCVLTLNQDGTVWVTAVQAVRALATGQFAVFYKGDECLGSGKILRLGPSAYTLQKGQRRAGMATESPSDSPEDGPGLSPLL
UniProt Q969E8: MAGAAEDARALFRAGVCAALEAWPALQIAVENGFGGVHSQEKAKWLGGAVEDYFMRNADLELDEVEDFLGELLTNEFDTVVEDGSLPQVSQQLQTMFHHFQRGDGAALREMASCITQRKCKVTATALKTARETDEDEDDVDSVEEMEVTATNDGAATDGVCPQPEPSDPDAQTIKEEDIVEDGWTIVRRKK
UniProt Q8NBP0: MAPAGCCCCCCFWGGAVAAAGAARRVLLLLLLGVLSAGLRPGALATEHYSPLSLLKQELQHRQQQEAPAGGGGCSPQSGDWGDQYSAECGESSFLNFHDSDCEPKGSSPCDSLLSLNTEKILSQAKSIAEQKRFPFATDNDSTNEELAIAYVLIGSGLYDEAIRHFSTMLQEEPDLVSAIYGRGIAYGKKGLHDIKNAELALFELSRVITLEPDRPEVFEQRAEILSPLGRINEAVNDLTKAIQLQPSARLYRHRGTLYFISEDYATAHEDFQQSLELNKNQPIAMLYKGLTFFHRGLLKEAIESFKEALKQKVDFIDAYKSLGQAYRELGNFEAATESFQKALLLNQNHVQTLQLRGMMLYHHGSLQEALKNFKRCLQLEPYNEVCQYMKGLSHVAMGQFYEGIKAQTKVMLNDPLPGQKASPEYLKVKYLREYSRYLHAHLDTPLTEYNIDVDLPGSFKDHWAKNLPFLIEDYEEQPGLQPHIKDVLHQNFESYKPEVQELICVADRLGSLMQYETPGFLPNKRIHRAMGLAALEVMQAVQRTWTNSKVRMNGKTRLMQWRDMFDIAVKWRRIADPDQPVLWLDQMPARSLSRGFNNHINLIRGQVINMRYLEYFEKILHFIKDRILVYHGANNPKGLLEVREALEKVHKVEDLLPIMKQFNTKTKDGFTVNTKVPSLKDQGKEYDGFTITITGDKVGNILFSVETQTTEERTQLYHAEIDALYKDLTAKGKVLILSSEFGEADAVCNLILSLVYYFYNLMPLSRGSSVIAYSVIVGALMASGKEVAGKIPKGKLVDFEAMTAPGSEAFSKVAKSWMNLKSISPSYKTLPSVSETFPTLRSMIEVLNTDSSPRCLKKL
UniProt Q5VTQ0: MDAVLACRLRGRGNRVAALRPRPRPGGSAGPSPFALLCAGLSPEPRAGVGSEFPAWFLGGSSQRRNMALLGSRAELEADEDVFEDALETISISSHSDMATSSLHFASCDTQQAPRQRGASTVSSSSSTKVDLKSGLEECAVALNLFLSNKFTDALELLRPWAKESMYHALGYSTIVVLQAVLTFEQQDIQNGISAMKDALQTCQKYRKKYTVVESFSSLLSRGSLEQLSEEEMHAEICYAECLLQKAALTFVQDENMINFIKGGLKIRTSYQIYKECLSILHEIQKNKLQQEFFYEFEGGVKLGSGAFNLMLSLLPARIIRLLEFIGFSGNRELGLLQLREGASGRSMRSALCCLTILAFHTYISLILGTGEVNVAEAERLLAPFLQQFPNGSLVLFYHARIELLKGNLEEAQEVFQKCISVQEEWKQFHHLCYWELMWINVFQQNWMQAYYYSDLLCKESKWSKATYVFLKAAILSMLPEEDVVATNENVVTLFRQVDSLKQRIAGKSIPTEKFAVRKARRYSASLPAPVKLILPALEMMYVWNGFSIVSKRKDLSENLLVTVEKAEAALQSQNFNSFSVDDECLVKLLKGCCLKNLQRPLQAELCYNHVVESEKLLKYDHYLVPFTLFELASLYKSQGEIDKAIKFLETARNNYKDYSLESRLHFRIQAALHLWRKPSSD
UniProt O43715: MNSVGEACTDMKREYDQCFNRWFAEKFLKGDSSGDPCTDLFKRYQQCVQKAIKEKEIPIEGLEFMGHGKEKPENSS

Key:
Test in all cases: log2 fold change, soluble protein after heating vs DMSO (PISA); higher = thermal stabilisation; K562 lysate, 10 uM; active = over 0.2 and 3.5 SD of the protein, either way, in both replicates (recomputed)
[1] = compound: CS(=O)(=O)CCNCc1ccc(-c2ccc3ncnc(Nc4ccc(OCc5cccc(F)c5)c(Cl)c4)c3c2)o1 [lapatinib]
In short: (§1)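 The values are log-two fold changes in thermal stability compared with solvent controls and come from duplicates. They were obtained by TMTpro 16plex LC-MS/MS, with channel sums equalised, on the supernatant after 21,000xg for 90 min. That supernatant came from crude K562 extract at 1 mg/mL protein treated with 10 μM compound for 30 min, heated for 3 min across 48°C-58°C, pooled and brought to 0.5% NP-40 at 4°C.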

[2] = compound: CS(=O)(=O)N1CCN(Cc2cc3nc(-c4cccc5[nH]ncc45)nc(N4CCOCC4)c3s2)CC1 [pictilisib]
In short: as §1

[3] = compound: C[C@@H](Oc1cc(-c2cnn(C3CCNCC3)c2)cnc1N)c1c(Cl)ccc(F)c1Cl [crizotinib]
In short: as §1

[4] = compound: C[C@H](C1=CC=C(C=C1)C(=O)NC2=C3C=CNC3=NC=C2)N
In short: as §1

[5] = compound: C[C@H](Nc1ncnc2nc[nH]c12)c1cc2cccc(Cl)c2c(=O)n1-c1ccccc1 [duvelisib]
In short: as §1

[6] = compound: Cc1cc(Nc2cc(CN3CCOCC3)c3nc(C)c(Cc4ccc(Cl)cc4F)n3n2)n[nH]1 [gandotinib]
In short: as §1

[7] = compound: Cc1cc(Nc2cc(N3CCN(C)CC3)nc(Sc3ccc(NC(=O)C4CC4)cc3)n2)n[nH]1 [tozasertib]
In short: as §1

[8] = compound: Cc1ccc(-n2nc(C(C)(C)C)cc2NC(=O)Nc2ccc(OCCN3CCOCC3)c3ccccc23)cc1 [doramapimod]
In short: as §1

[9] = compound: Cc1ccc(NC(=O)c2ccc(CN3CC[C@H](N(C)C)C3)c(C(F)(F)F)c2)cc1Nc1nccc(-c2cncnc2)n1 [bafetinib]
In short: as §1

[10] = compound: Cc1cccc(CC(=O)N2CCc3c2ccc(-c2cn(C)c4ncnc(N)c24)c3F)n1
In short: as §1

| Target | log2 fold change [1] | log2 fold change [2] | log2 fold change [3] | log2 fold change [4] | log2 fold change [5] | log2 fold change [6] | log2 fold change [7] | log2 fold change [8] | log2 fold change [9] | log2 fold change [10] |
| --- | --- | --- | --- | --- | --- | --- | --- | --- | --- | --- |
| TRAM1 (UniProt Q15629) | inactive: -0.187 | inactive: 0.037 | inactive: -0.122 | inactive: -0.052 | inactive: -0.064 | inactive: -0.324 | inactive: 0.04 | inactive: -0.086 | inactive: -0.067 | inactive: 0.126 |
| TRAF2 isoform 2 (UniProt Q12933) | inactive: -0.032 | inactive: 0.004 | inactive: -0.032 | inactive: -0.047 | inactive: 0.006 | inactive: -0.045 | inactive: 0.007 | inactive: 0.005 | inactive: -0.011 | inactive: 0.053 |
| TRIP10 isoform 2 (UniProt Q15642) | inactive: 0.015 | inactive: 0.074 | inactive: 0.114 | inactive: -0.029 | inactive: -0.015 | inactive: 0.093 | inactive: -0.01 | inactive: -0.054 | inactive: 0.04 | inactive: 0.096 |
| TTC37 (UniProt Q6PGP7) | inactive: -0.157 | inactive: -0.03 | inactive: -0.202 |  | inactive: 0.096 |  |  | inactive: 0.069 | inactive: -0.26 |  |
| TRIOBP (UniProt Q9H2D6) | inactive: 0.11 | inactive: 0.044 | inactive: 0.02 | inactive: -0.012 | inactive: -0.019 | inactive: -0.103 | inactive: -0.035 | inactive: 0.047 | inactive: -0.036 | inactive: -0.022 |
| TRIM41 (UniProt Q8WV44) | inactive: -0.119 |  | inactive: -0.089 | inactive: -0.029 | inactive: -0.006 | inactive: -0.114 | inactive: 0.089 | inactive: 0.049 |  | inactive: -0.07 |
| TSNAX (UniProt Q99598) | inactive: -0.011 | inactive: 0 | inactive: 0.018 | inactive: 0.003 | inactive: 0.019 | inactive: 0.017 | inactive: -0.019 | inactive: 0.017 | inactive: 0.036 | inactive: -0.014 |
| TRIM65 (UniProt Q6PJ69) | inactive: 0.028 | inactive: -0.035 | inactive: -0.046 | inactive: -0.06 | inactive: 0.072 | inactive: -0.102 | inactive: 0.042 | inactive: -0.02 | inactive: 0.034 | inactive: 0.088 |
| TSC1 (UniProt Q92574) | inactive: -0.032 | inactive: 0.049 | inactive: -0.036 | inactive: -0.049 | inactive: -0.002 | inactive: -0.065 | inactive: 0.112 | inactive: 0.003 | inactive: -0.062 | inactive: 0.119 |
| TRIM24 (UniProt O15164) | inactive: -0.011 | inactive: -0.036 | inactive: -0.026 | inactive: 0.02 | inactive: 0.032 | inactive: -0.102 | inactive: 0.05 | inactive: -0.012 | inactive: -0.072 | inactive: -0.012 |
| TRIQK (UniProt Q629K1) | inactive: -0.009 | inactive: 0.011 | inactive: 0.009 |  | inactive: -0.293 |  | inactive: 0.12 | inactive: -0.038 | inactive: -0.033 |  |
| TRMT2B (UniProt Q96GJ1) | inactive: -0.122 | inactive: -0.055 | inactive: -0.013 | inactive: 0 | inactive: 0.001 | inactive: -0.025 |  | inactive: 0.052 | inactive: -0.12 | inactive: 0.014 |
| TRAPPC8 (UniProt Q9Y2L5) | inactive: -0.012 | inactive: -0.022 | inactive: -0.014 | inactive: -0.002 | inactive: -0.025 | inactive: -0.011 | inactive: -0.016 | inactive: 0.031 | inactive: -0.016 | inactive: 0.006 |
| TRAPPC10 (UniProt P48553) | inactive: 0 | inactive: 0 | inactive: -0.034 | inactive: -0.101 | inactive: -0.016 | inactive: 0.022 | inactive: -0.01 | inactive: -0.027 | inactive: -0.007 | inactive: 0.074 |
| TRIM4 (UniProt Q9C037) | inactive: -0.061 | inactive: 0.042 | inactive: -0.076 | inactive: 0.049 | inactive: -0.049 | inactive: -0.063 | inactive: -0.004 | inactive: -0.017 | inactive: -0.215 | inactive: 0.253 |
| TSEN15 (UniProt Q8WW01) | inactive: 0.044 | inactive: -0.042 | inactive: -0.024 | inactive: 0.058 | inactive: -0.009 | inactive: 0.01 | inactive: 0.037 | inactive: 0.012 | inactive: -0.104 | inactive: -0.034 |
| TRPM7 (UniProt Q96QT4) | inactive: -0.211 |  | inactive: 0.14 | inactive: -0.068 | inactive: 0.046 | inactive: -0.009 | inactive: 0.008 | inactive: -0.005 |  | inactive: 0.201 |
| TRMU (UniProt O75648) | inactive: -0.026 | inactive: 0.104 | inactive: -0.097 | inactive: 0.015 | inactive: -0.037 | inactive: -0.143 | inactive: 0.045 | inactive: 0.047 | inactive: -0.146 | inactive: -0.055 |
| TRIM44 (UniProt Q96DX7) | active: -0.242 | inactive: -0.11 | inactive: -0.018 | inactive: 0.04 | inactive: 0.007 | inactive: 0.01 | inactive: -0.04 | inactive: 0.013 | inactive: 0.031 | inactive: -0.075 |
| TSR2 (UniProt Q969E8) | inactive: -0.002 | inactive: 0.009 | inactive: 0.018 | inactive: 0.006 | inactive: -0.013 | inactive: -0.02 | inactive: -0.027 | inactive: 0.004 | inactive: -0.005 | inactive: 0.01 |
| TRIM33 isoform 2 (UniProt Q9UPN9) | inactive: -0.034 | inactive: 0.008 | inactive: -0.015 | inactive: -0.07 | inactive: -0.002 | inactive: -0.023 | inactive: 0.011 | inactive: 0.021 | inactive: -0.038 | inactive: 0.056 |
| TTC13 (UniProt Q8NBP0) | inactive: 0.03 | inactive: -0.087 | inactive: -0.08 |  |  |  |  | inactive: 0.096 | inactive: -0.263 |  |
| TTC39B (UniProt Q5VTQ0) | inactive: -0.093 | inactive: 0.003 |  |  | inactive: 0.173 |  |  |  | inactive: -0.182 |  |
| TRAFD1 (UniProt O14545) | inactive: 0.028 | inactive: 0.007 | inactive: -0.003 | inactive: -0.003 | inactive: -0.008 | inactive: -0.009 | inactive: 0.056 | inactive: 0.05 | inactive: -0.05 | inactive: 0.031 |
| TRIAP1 (UniProt O43715) | inactive: 0.071 |  | inactive: -0.051 | inactive: 0.284 | inactive: -0.009 | inactive: -0.044 | inactive: 0.054 | inactive: -0.128 |  | inactive: -0.053 |
| TRIM33 (UniProt H0Y612) | inactive: -0.078 | inactive: 0.044 | inactive: 0.004 | inactive: -0.093 | inactive: 0.012 | inactive: 0.019 | inactive: 0.07 | inactive: 0.001 | inactive: -0.077 | inactive: 0.039 |
| TRPT1 isoform 4 (UniProt Q86TN4) | inactive: -0.008 | inactive: 0.371 | inactive: -0.032 | inactive: -0.028 | inactive: 0.051 | inactive: 0.034 |  | inactive: 0.047 | inactive: 0.139 | inactive: -0.007 |
| TRPV2 (UniProt Q9Y5S1) | inactive: -0.015 | inactive: -0.013 | inactive: 0.016 | inactive: -0.105 | inactive: 0.013 | inactive: 0.06 | inactive: -0.026 | inactive: 0.015 | inactive: -0.03 | inactive: 0.051 |
| TTC9C (UniProt Q8N5M4) | inactive: -0.001 | inactive: -0.025 | inactive: 0.049 | inactive: -0.157 | inactive: -0.056 | inactive: 0.091 | inactive: 0.002 | inactive: -0.028 | inactive: -0.048 | inactive: 0.066 |

Given comma-delimited: part of the list above
Target,log2 fold change [1],log2 fold change [2],log2 fold change [3],log2 fold change [4],log2 fold change [5],log2 fold change [6],log2 fold change [7],log2 fold change [8],log2 fold change [9],log2 fold change [10]
TRAFD1 (UniProt O14545),inactive: 0.028,inactive: 0.007,inactive: -0.003,inactive: -0.003,inactive: -0.008,inactive: -0.009,inactive: 0.056,inactive: 0.05,inactive: -0.05,inactive: 0.031
TRPV2 (UniProt Q9Y5S1),inactive: -0.015,inactive: -0.013,inactive: 0.016,inactive: -0.105,inactive: 0.013,inactive: 0.06,inactive: -0.026,inactive: 0.015,inactive: -0.03,inactive: 0.051
